Experimental data: publication PMC5239461
No constants are given. Whether binding was seen depends on the method and setting. Some binding calls cover weakened binding; strength is not graded here.

Target: STAT3 (human (endogenous in CRC cell lines)), P40763
Test: native gel or EMSA; extracts of CRC cell lines with or without IL-6 (10 ng/ml, 20 min) on the SIEm67 STAT1/3 response element; pre-incubation with STAT1 and/or STAT3 specific antibodies for supershift
Conditions: remark: other sources report otherwise

binding: binds
B1: STAT1, P42224 1-750 (protein)
chain: MSQWYELQQLDSKFLEQVHQLYDDSFPMEIRQYLAQWLEKQDWEHAANDVSFATIRFHDLLSQLDDQYSRFSLENNFLLQHNIRKSKRNLQDNFQEDPIQMSMIIYSCLKEERKILENAQRFNQAQSGNIQSTVMLDKQKELDSKVRNVKDKVMCIEHEIKSLEDLQDEYDFKCKTLQNREHETNGVAKSDQKQEQLLLKKMYLMLDNKRKEVVHKIIELLNVTELTQNALINDELVEWKRRQQSACIGGPPNACLDQLQNWFTIVAESLQQVRQQLKKLEELEQKYTYEHDPITKNKQVLWDRTFSLFQQLIQSSFVVERQPCMPTHPQRPLVLKTGVQFTVKLRLLVKLQELNYNLKVKVLFDKDVNERNTVKGFRKFNILGTHTKVMNMEESTNGSLAAEFRHLQLKEQKNAGTRTNEGPLIVTEELHSLSFETQLCQPGLVIDLETTSLPVVVISNVSQLPSGWASILWYNMLVAEPRNLSFFLTPPCARWAQLSEVLSWQFSSVTKRGLNVDQLNMLGEKLLGPNASPDGLIPWTRFCKENINDKNFPFWLWIESILELIKKHLLPLWNDGCIMGFISKERERALLKDQQPGTFLLRFSESSREGAITFTWVERSQNGGEPDFHAVEPYTKKELSAVTFPDIIRNYKVMAAENIPENPLKYLYPNIDKDHAFGKYYSRPKEAPEPMELDGPKGTGYIKTELISVSEVHPSRLQTTDNLLPMSPEEFDEVSRIVGSVEFDSMMNTV
